Experimental data published in patent publication US20220135670A1.

Molecular target: recombinant soluble cynomolgus monkey LAG-3 (cynomolgus monkey)
Assay: SPR, recombinant soluble LAG-3

B1: anti-LAG-3 antibody agent TSR-033 (antibody, human IgG4 S228P, kappa, V domains shown)
VH: EVQLVQSGAEVKKPGATVKISCKASGFSIKDDYIHWVQQAPGKGLEWMGWIDAMNDDSQYSSKFQGRVTITVDTSTNTAYMKLSSLRSEDTAVYYCTYAFGGYWGQGTTVTVSS
VL: DIVMTQTPLSLSVTPGQPASISCRSSQSLVHSDSNTYLHWYLQKPGQSPQLLIYLVSNRFSGVPDRFSGSGSGTDFTLKISRVEAEDVGVYFCGQSTHVPYAFGGGTKVEIKR
modifications: N-glycosylation at N291 of the heavy chain
For B1, the binding was “binds”.

No constants are given. Whether binding was seen depends on the method and setting. Binding can be weak; no strength is given.
